{"sequences": {"note": "Chains of the proteins cited; added tags and fusions are not shown.", "UniProt P53350, whole entry, looked up": "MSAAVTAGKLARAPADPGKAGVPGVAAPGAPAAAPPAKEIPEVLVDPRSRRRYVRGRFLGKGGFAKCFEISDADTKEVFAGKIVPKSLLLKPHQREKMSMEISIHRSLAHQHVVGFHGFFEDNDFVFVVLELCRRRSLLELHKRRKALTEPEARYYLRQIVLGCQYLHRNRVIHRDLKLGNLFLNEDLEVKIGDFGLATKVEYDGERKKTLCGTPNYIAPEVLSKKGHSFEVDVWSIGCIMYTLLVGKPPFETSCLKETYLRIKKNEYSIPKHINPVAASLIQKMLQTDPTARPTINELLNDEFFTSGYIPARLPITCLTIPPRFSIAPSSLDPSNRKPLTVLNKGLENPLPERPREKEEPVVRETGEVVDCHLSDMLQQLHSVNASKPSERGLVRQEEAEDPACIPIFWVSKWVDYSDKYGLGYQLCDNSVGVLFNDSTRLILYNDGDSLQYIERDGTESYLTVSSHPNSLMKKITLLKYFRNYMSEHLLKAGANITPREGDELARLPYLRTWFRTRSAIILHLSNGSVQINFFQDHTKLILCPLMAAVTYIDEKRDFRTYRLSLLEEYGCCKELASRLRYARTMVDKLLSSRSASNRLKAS"}, "source": "PubChem BioAssay AID720504", "about": "(National Center for Advancing Translational Sciences (NCATS), 2013)", "note": "About 10,000 (2.8%) of roughly 360,000 compounds were called active. Inconclusive means that the source gave no clear call. Such entries were picked first, then a sample of the others. The call rests on the fitted dose curve; in most records, active means well fitted inhibition curve with a large enough effect; inconclusive means small, poorly fitted or top-dose-only effect; inactive means flat fitted curve, though single readings scatter. Potencies beside an inconclusive call are fits to weak or partial responses and may not hold up. On the % scale 0 is the no-effect control and ±100 the full control effect; potency means the concentration at half of the fitted maximal effect.", "data": [{"target": "Serine/threonine-protein kinase PLK1 (Homo sapiens) (UniProt P53350)", "assay": "qHTS for Inhibitors of PLK1-PDB (polo-like kinase 1 - polo-box domain): Primary Screen; further: nearly all actives have a fitted effect of over 65% in size; on max response, negative = inhibition: series mostly up to about 57 µM", "conditions": "Plk1 PBD binding of FITC phosphopeptide, fluorescence polarization", "values": [{"compound": "COc1cc(/C=C2\\C(=N)N3N=CSC3=NC2=O)ccc1OS(=O)(=O)c1ccccc1[N+](=O)[O-]", "Potency": "active: 26.7 µM"}, {"compound": "CC(C)c1ccc(C(=O)CSc2ncn[nH]2)cc1", "Potency": "active: 29.9 µM"}, {"compound": "COc1ccc(C2C3=C(CC(c4ccco4)CC3=O)Nc3ccccc3N2C(C)=O)cc1", "note": "(stereo not drawn)", "max response, negative = inhibition": "inactive: 3.85%"}, {"compound": "C=CCN(CC=C)C(=S)NC(=O)c1ccc(OC)cc1", "Potency": "inconclusive: 37.7 µM [inhibitor, partial curve, poor fit]"}, {"compound": "CCOc1ccc(/C=N/NC(=O)C2(O)c3ccccc3-c3ccccc32)cc1", "Potency": "inconclusive: 29.9 µM [inhibitor, partial curve]"}, {"compound": "COc1ccc(C(=O)NC(=S)Nc2nnn(C)n2)cc1", "Potency": "inconclusive: 18.9 µM [inhibitor, partial curve]"}, {"compound": "CCOC(=O)c1c(NC(=S)NC(C)=O)sc(C)c1C", "Potency": "inconclusive: 26.7 µM [inhibitor, partial curve]"}, {"compound": "CCC1(C)SC(NC(C)=O)=NN1C(C)=O", "note": "(stereo not drawn)", "Potency": "inconclusive: 37.7 µM [inhibitor, single point]"}, {"compound": "COc1ccc(C(=O)c2ccc(N3CCOCC3)cc2)c(OC)c1", "max response, negative = inhibition": "inactive: -1.45%"}, {"compound": "CC(C)(C)C1C/C(=C/c2ccccn2)C(=O)/C(=C/c2ccccn2)C1", "note": "(stereo not drawn)", "max response, negative = inhibition": "inconclusive: -36.3% [inhibitor]"}, {"compound": "CCOC(=O)N1CCC(NC(=O)C2CCN(S(=O)(=O)c3cccc4cccnc34)CC2)CC1", "max response, negative = inhibition": "inconclusive: -31.1% [inhibitor]"}, {"compound": "COc1ccc(CSc2nncn2C)cc1F", "Potency": "inconclusive: 8.44 µM [inhibitor, full curve, poor fit]"}, {"compound": "S=C1NC(c2cccs2)=CC(c2ccc(Br)cc2)N1", "note": "(stereo not drawn)", "Potency": "inconclusive: 26.7 µM [inhibitor, partial curve]"}, {"compound": "Cc1ccc(Nc2cccccc2=O)cc1", "Potency": "active: 9.47 µM"}, {"compound": "O=C(CN1C(=O)NC2(CCCC2)C1=O)N1CCN(c2ccc(C(F)(F)F)cc2[N+](=O)[O-])CC1", "max response, negative = inhibition": "inactive: -14.4%"}, {"compound": "C=CCn1c(SCC(=O)Nc2cc(C)on2)nc2sc3c(c2c1=O)CCCC3", "Potency": "active: 26.7 µM"}, {"compound": "COC(=O)[C@]1(Cc2ccccc2)N[C@H](c2ccc(-c3ccc(Cl)c(Cl)c3)cc2)[C@@H]2C(=O)N(C)C(=O)[C@@H]21", "max response, negative = inhibition": "inactive: -26.3%"}, {"compound": "O=c1[nH]cc(-c2ccccc2)c(=O)[nH]1", "max response, negative = inhibition": "inactive: -0.841%"}, {"compound": "COC(=O)C1=C(C(=O)OC)C(C(=O)OC)C(C(=O)OC)C(C(=O)OC)(C(=O)OC)C(C(=O)OC)=C1C(=O)OC", "note": "(stereo not drawn)", "Potency": "active: 10.6 µM"}, {"compound": "COc1ccc(C(=O)NNC2=NC(C)(C)Cc3ccccc32)cc1", "max response, negative = inhibition": "inactive: -10.8%"}, {"compound": "CCCCNC(=O)CCc1c(C)nc2c(c(C)nn2-c2ccccc2)c1C", "Potency": "inconclusive: 21.2 µM [inhibitor, partial curve]"}, {"compound": "CC1(C)COCN1S(=O)(=O)c1ccc(C(=O)Nc2nnc(-c3ccc(Cl)s3)o2)cc1", "Potency": "inconclusive: 31.6 µM [inhibitor, single point]"}, {"compound": "S=c1sc2c(N3CCOCC3)ncnc2n1-c1ccccc1", "Potency": "inconclusive: 37.7 µM [inhibitor, single point]"}, {"compound": "CC1=NC(=O)C(N=Nc2ccccc2C(=O)O)N1c1ccccc1", "note": "(stereo not drawn)", "Potency": "inconclusive: 26.7 µM [inhibitor, single point]"}, {"compound": "CN1CC=C2C(C#N)=C(N)C(C#N)(C#N)[C@H](c3ccoc3)[C@H]2C1", "Potency": "active: 15 µM"}, {"compound": "Cc1cccc(CS(=O)(=O)c2ncc(Cl)c(C(=O)NCc3ccccc3)n2)c1", "Potency": "inconclusive: 18.9 µM [inhibitor, partial curve]"}, {"compound": "Cc1ccc(NS(=O)(=O)c2ccc(C)c(NC(=S)NCCN3CCOCC3)c2)c(C)c1", "Potency": "inconclusive: 37.7 µM [inhibitor, single point]"}, {"compound": "OC(CNCc1ccncc1)c1ccccc1", "note": "(stereo not drawn)", "Potency": "active: 26.7 µM"}, {"compound": "COc1ccc2c(c1)[C@H]1[C@H](CO2)[C@H](c2ccccc2)[C@]2(C)C(=O)N(Cc3ccc(C)cc3)CC(=O)N12", "max response, negative = inhibition": "inactive: -17.1%"}, {"compound": "COc1ccc(CNC(=O)C/C(C)=N/NC(=O)C23CC4CC(CC(C4)C2)C3)cc1", "Potency": "inconclusive: 26.7 µM [inhibitor, single point]"}, {"compound": "Cc1c(CCOC(=O)C23CC4CC(CC(C)(C4)C2)C3)sc[n+]1Cc1ccccc1", "Potency": "inconclusive: 8.44 µM [inhibitor, partial curve]"}, {"compound": "CC(=O)Nc1sc2c(c1C(c1ccccn1)N1CCN(C)CC1)CCCC2", "note": "(stereo not drawn)", "max response, negative = inhibition": "inactive: 2.24%"}, {"compound": "CC1=C(C(=O)N2CCCCCC2)CC(CC(=O)NCCCN(C)C)C(=O)N1Cc1ccc(F)cc1", "note": "(stereo not drawn)", "max response, negative = inhibition": "inactive: 0.202%"}, {"compound": "CN(C)c1ccc([C@@H]2[C@@H]([N+](=O)[O-])[C@H]3C=Cc4ccccc4N3[C@H]2C(=O)c2ccc(Cl)cc2)cc1", "max response, negative = inhibition": "inactive: -1.03%"}, {"compound": "COc1ccc(S(=O)(=O)N2CCN(C(=O)c3cc4c(s3)CCC4)CC2)cc1", "Potency": "inconclusive: 21.2 µM [inhibitor, partial curve]"}, {"compound": "CCOC(=O)c1nnc2c(Br)c(-c3ccccc3)nn2c1C", "Potency": "active: 29.9 µM"}, {"compound": "CCc1ccc(NC(=O)CN(CC(=O)Nc2ccc(CC)cc2)CC(C)O)cc1", "note": "(stereo not drawn)", "Potency": "active: 26.7 µM"}, {"compound": "Cc1cc(C=C2C(=O)CCCC2=O)c(C)n1-c1ccccc1", "Potency": "inconclusive: 26.7 µM [inhibitor, single point]"}, {"compound": "COc1ccccc1NC(=O)CC1Nc2ccccc2NC1=O", "note": "(stereo not drawn)", "max response, negative = inhibition": "inactive: 0.568%"}, {"compound": "COc1cccc(-c2nc(CS(=O)CC(=O)NCCc3ccccc3)c(C)o2)c1", "note": "(stereo not drawn)", "max response, negative = inhibition": "inconclusive: -31.5% [inhibitor]"}, {"compound": "O=P(O)(Cc1ccccc1)Cc1ccccc1", "max response, negative = inhibition": "inactive: 7.03%"}, {"compound": "O=C(N/N=C/c1ccc(Cl)c([N+](=O)[O-])c1)c1ccc2c(c1)OCCO2", "Potency": "inconclusive: 33.6 µM [inhibitor, single point]"}, {"compound": "O=C(NCCC1=CCCCC1)C1CCN(S(=O)(=O)c2cccc3nsnc23)CC1", "Potency": "inconclusive: 13.4 µM [inhibitor, partial curve]"}, {"compound": "CCOc1ccc([C@@H]2CC=C(C(=O)O)[C@H](c3ccc(Cl)cc3)N2S(=O)(=O)c2ccc(C)cc2)cc1", "Potency": "inconclusive: 29.9 µM [inhibitor, partial curve]"}, {"compound": "CC(CN1CC(=O)NC(=O)C1)N1CC(=O)NC(=O)C1", "note": "(stereo not drawn)", "Potency": "inconclusive: 26.7 µM [inhibitor, single point]"}, {"compound": "COc1ccc(CCNC(=O)c2ccc([N+](=O)[O-])cc2)cc1", "max response, negative = inhibition": "inactive: -17%"}, {"compound": "O=C(Nc1nc(-c2ccccn2)cs1)c1cc(S(=O)(=O)N2CCOCC2)ccc1F", "Potency": "inconclusive: 29.9 µM [inhibitor, partial curve]"}, {"compound": "O=C(CSc1ccc2ccccc2c1)Nc1ccc(S(=O)(=O)Nc2nccs2)cc1", "Potency": "inconclusive: 26.7 µM [inhibitor, single point]"}, {"compound": "O=C(NNC(=S)NC(=O)c1sc2ccccc2c1Cl)c1ccc(Cl)cc1", "Potency": "inconclusive: 29.9 µM [inhibitor, partial curve]"}, {"compound": "CCOC(=O)C1=C(O)/C(=C/c2ccc(CNC(=O)C(=O)Nc3ccc(C)cc3)o2)N=C1C", "max response, negative = inhibition": "inactive: -10.9%"}, {"compound": "CCc1nc2ccc(C(=O)N3CCN(c4ccc(Cl)cc4)CC3)cc2nc1CC", "Potency": "inconclusive: 21.2 µM [inhibitor, partial curve]"}, {"compound": "Cc1cc(C)c2c(c1)/C(=N/Nc1ccc(S(N)(=O)=O)cc1[N+](=O)[O-])CCC2", "max response, negative = inhibition": "inactive: -4.82%"}, {"compound": "CC(C)(C)N1C(=O)c2ccc(C(=O)Nc3cc(C(=O)O)cc(C(=O)O)c3)cc2C1=O", "max response, negative = inhibition": "inactive: 1.97%"}, {"compound": "O=[N+]([O-])c1ccc(C2Nc3cccc4cccc(c34)N2)cc1", "max response, negative = inhibition": "inactive: -7.47%"}, {"compound": "CCOc1ccc(-c2csc(NC(=O)CSCC(=O)O)n2)c2ccccc12", "Potency": "inconclusive: 23.8 µM [inhibitor, single point]"}, {"compound": "COCCNC(=O)Cn1c(=O)n(CCCC(=O)NCc2ccc3c(c2)OCO3)c(=O)c2sccc21", "Potency": "active: 26.7 µM"}, {"compound": "Cn1c(SCC(=O)NCCc2ccccc2)nnc1-c1ccco1", "Potency": "inconclusive: 29.9 µM [inhibitor, single point]"}, {"compound": "COc1cccc(-c2coc3c(C)c4oc(=O)c(CCC(=O)O)c(C)c4cc23)c1", "Potency": "inconclusive: 37.7 µM [inhibitor, single point]"}, {"compound": "COc1ccc(Br)cc1/C=N/NC(=O)c1ccc(COc2ccc3c(c2)CCC3)o1", "Potency": "inconclusive: 26.7 µM [inhibitor, single point]"}, {"compound": "Cc1occc1C(=O)NNC(=S)Nc1cccc([N+](=O)[O-])c1", "max response, negative = inhibition": "inactive: -13%"}, {"compound": "CC(CNc1ccccc1O)C(=O)O", "note": "(stereo not drawn)", "Potency": "inconclusive: 23.8 µM [inhibitor, single point]"}, {"compound": "Cc1cn(CC(=O)NCC2CCCO2)c(=O)[nH]c1=O", "note": "(stereo not drawn)", "Potency": "inconclusive: 23.8 µM [inhibitor, single point]"}, {"compound": "N#CC(=C1C=CC(=NO)C(Cl)=C1)c1ccc(Cl)cc1", "max response, negative = inhibition": "inactive: -12.1%"}, {"compound": "Cc1ccc(S(=O)(=O)N2CCN(C(=O)n3ccnc3)CC2)cc1", "Potency": "inconclusive: 23.8 µM [inhibitor, partial curve]"}, {"compound": "C[C@@H]1CN([C@H](C)CO)C(=O)CCCn2nncc2CO[C@H]1CN(C)S(=O)(=O)c1ccccc1", "max response, negative = inhibition": "inactive: -6.24%"}, {"compound": "Cc1c(NC(=O)/C(=C/c2cccs2)NC(=O)c2ccccc2)c(=O)n(-c2ccccc2)n1C", "Potency": "inconclusive: 29.9 µM [inhibitor, partial curve]"}, {"compound": "O=C1CCCCCN1Cc1nnc(SCc2nc3ccccc3s2)n1-c1ccccn1", "Potency": "inconclusive: 75.2 µM [inhibitor, partial curve]"}, {"compound": "Cc1nn(C)c2nc(-c3cccs3)cc(C(F)(F)F)c12", "Potency": "inconclusive: 23.8 µM [inhibitor, partial curve]"}]}]}
